These are yes or no findings as the source states them, for the method shown. In cells and extracts the contact can be indirect. Some entries that bind do so weakly or less than the wild type. Sequences can lack the tags named with a protein.
Target: T1, HA-tagged S100A11 (full-length) (human) (UniProt P31949)
T1 sequence: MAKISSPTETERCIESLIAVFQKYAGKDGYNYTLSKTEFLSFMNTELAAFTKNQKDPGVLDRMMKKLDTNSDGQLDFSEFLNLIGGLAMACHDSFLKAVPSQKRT
Assay: co-IP; HEK293T co-transfected with HA-tagged S100A11 and Myc-tagged ANXA2; lysate precipitated with anti-HA antibody agarose beads; WB with HA or Myc antibody

Sequences of proteins named here, by UniProt entry; tags and fusion partners are left off.
UniProt P07355: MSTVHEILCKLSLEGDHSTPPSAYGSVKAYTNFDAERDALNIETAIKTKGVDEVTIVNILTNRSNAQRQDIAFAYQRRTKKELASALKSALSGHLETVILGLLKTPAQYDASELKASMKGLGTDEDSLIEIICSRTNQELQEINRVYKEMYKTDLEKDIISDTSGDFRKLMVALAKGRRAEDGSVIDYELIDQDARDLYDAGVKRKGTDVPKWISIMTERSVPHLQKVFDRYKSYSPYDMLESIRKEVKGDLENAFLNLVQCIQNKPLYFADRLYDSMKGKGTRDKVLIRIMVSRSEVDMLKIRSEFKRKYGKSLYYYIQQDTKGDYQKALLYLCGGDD

binding: binds
Substance: Myc-tagged annexin A2 (from UniProt P07355 1-339)

— publication PMC11002074, “Lysyl oxidase-like 4 promotes the invasiveness of triple-negative breast cancer cells by orchestrating the invasive machinery formed by annexin A2 and S100A11 on the cell surface” (Frontiers in Oncology, 2024)
